Source: patent US20240011017A1
No constants are given. Whether binding was seen depends on the method and setting. Some binding calls cover weakened binding; strength is not graded here.

The chains behind the UniProt entries cited, without tags or fusion partners. Where a name states a change or a piece, a line headed by the entry shows the natural chain unless it says otherwise. Residues count along the entry.
UniProt P13290: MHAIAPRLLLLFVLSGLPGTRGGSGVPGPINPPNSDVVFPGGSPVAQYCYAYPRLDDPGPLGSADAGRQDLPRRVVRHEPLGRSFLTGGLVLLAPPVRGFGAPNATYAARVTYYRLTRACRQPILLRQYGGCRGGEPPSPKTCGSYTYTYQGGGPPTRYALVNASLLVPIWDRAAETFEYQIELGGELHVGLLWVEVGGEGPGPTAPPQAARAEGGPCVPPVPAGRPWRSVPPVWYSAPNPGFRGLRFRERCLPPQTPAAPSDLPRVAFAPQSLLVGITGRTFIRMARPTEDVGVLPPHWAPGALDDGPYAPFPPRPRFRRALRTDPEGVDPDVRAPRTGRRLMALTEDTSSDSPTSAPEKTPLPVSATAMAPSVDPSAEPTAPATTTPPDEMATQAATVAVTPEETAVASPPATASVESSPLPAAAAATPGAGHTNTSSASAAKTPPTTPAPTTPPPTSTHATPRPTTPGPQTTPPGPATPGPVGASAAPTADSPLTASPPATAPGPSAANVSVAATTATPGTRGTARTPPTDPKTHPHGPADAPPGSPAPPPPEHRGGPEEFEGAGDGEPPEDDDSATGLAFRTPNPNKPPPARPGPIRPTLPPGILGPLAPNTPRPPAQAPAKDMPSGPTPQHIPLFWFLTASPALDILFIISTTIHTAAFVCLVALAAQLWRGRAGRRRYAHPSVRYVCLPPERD
UniProt Q6UXZ4, residues 33-379: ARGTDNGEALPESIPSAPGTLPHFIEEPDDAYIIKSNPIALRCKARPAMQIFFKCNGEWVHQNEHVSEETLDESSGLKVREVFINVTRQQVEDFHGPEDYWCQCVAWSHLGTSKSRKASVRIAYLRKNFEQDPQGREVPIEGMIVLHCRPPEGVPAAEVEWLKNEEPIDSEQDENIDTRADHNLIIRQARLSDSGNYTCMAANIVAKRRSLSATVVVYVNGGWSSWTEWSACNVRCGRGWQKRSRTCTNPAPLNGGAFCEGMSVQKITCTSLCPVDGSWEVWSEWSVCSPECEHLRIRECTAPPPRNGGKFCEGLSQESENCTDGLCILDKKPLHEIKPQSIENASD

Assays:
[1] = biological target: HSV-2 protein gG as used in the Cos7 cell-based immunofluorescence validation (Herpes simplex virus 2) (UniProt P13290); experiment: Cos7 cell-based immunofluorescence, FIG. 20
[2] = biological target: HSV-2 protein gG as used in the Cos7 cell-based immunofluorescence validation (Herpes simplex virus 2) (UniProt P13290); experiment: Cos7 cell-based immunofluorescence validation (FIG. 20), UNC5D-Fc

UNC5D-Fc (from UniProt Q6UXZ4 33-379) (Fc fusion)
binding [1]: binds
binding [2]: binds
